We go through one compound from article PMC6362833 (ACS chemical neuroscience, 2017).

For one experiment, the target named is AC1 (Homo sapiens, UniProt Q08828). The experiment can be described thus: CaM-stimulated AC1 activity in membrane preparations. The conditions noted are these: read-out: AC1 % inhibition. It counts as biochemical.
For another experiment, the target named is AC8 (Homo sapiens, UniProt P40145). The experiment can be described thus: CaM-stimulated AC8 activity in membrane preparations. The class given is biochemical.

On to `CC(C)(C)CC(C)(C)c1ccc(OCCOCC[N+](C)(C)Cc2ccccc2)cc1` [benzethonium, Benzethonium chloride], for which the figures for the inhibition at 100 µM on AC1 and at AC8 (read-out: AC8 % inhibition) were 85 ± 1% and 100 ± 1%, respectively. In addition, at AC8, the “potency against AC8 compared with AC1” value is recorded as “slightly more potent against AC8 than AC1”.
